Laboratory results as given in the supplement of paper PMC10849652.
The other results are listed elsewhere or left out.

Chains of the proteins cited; added tags and fusions are not shown. Lines headed by an entry give the natural chain unless they say otherwise; changes in a name come on top.
UniProt P17858: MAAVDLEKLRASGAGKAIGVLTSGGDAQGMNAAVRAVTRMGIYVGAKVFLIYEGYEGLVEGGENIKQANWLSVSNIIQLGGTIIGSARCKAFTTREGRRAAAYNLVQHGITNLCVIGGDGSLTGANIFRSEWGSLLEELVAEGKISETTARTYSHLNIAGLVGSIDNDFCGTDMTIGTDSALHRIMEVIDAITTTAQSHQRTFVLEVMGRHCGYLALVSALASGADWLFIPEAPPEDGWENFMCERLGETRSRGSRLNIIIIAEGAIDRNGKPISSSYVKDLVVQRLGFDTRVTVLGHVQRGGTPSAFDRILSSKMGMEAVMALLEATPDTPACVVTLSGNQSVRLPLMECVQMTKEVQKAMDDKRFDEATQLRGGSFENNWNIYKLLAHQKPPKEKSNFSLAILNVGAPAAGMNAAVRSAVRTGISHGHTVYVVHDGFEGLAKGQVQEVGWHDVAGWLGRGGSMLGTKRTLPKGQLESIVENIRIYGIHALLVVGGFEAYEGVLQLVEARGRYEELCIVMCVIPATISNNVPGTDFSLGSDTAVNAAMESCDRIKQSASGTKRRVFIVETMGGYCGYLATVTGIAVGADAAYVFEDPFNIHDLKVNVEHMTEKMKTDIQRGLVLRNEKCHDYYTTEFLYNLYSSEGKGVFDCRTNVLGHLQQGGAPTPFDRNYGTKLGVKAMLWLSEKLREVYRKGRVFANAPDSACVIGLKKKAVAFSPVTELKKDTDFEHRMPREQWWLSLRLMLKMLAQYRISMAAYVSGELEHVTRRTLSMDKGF
UniProt P07737, whole entry, looked up: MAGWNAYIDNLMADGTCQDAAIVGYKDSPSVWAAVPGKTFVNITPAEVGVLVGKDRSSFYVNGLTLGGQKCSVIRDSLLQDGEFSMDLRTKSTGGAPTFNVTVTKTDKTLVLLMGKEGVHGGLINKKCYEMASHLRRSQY
UniProt Q16822, whole entry, looked up: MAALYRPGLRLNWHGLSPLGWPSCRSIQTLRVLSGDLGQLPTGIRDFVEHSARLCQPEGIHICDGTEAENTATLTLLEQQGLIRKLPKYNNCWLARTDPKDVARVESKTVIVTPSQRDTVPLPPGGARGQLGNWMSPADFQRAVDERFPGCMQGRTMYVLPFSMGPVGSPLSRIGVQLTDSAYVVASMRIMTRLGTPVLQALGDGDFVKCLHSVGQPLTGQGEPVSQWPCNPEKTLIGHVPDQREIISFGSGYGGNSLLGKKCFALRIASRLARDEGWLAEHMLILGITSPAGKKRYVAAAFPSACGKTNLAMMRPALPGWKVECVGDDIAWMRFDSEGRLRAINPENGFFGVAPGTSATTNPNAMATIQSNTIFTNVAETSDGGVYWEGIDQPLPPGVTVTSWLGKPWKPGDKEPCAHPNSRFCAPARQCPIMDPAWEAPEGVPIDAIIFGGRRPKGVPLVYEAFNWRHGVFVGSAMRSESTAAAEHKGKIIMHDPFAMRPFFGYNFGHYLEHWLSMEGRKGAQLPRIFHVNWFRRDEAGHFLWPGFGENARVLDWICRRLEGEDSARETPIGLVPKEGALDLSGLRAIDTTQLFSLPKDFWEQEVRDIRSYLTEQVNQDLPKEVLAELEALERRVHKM
UniProt O60825: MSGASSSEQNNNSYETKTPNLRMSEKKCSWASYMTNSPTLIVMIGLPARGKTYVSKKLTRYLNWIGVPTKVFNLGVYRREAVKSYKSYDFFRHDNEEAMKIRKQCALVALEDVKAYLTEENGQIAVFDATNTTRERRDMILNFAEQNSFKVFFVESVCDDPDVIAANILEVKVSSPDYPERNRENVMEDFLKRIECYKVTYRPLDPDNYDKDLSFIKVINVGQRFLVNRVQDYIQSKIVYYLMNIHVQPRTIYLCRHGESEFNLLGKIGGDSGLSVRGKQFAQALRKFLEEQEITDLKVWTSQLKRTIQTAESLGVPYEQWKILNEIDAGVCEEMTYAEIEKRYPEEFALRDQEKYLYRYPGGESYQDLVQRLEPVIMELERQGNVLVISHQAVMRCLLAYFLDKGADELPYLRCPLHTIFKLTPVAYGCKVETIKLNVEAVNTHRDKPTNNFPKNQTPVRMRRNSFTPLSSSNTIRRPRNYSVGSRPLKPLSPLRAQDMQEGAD
UniProt Q15366, whole entry, looked up: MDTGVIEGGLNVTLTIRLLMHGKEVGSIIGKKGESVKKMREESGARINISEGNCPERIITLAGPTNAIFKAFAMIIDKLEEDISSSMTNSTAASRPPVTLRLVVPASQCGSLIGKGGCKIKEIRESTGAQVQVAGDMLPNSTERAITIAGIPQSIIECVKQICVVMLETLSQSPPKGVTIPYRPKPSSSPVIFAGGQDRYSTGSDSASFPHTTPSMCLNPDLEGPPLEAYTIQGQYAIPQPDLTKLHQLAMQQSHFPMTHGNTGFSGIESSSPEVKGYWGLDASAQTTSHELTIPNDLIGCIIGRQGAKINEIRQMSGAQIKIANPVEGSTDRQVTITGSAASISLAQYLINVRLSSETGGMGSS
UniProt Q96GD0: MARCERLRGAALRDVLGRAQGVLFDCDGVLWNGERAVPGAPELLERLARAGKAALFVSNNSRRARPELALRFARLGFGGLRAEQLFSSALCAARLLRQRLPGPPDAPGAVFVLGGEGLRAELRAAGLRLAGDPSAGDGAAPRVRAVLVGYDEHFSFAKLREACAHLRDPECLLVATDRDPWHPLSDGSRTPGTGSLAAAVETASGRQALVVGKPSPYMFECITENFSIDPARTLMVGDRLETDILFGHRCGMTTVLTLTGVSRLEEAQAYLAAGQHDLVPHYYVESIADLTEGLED
UniProt P61457: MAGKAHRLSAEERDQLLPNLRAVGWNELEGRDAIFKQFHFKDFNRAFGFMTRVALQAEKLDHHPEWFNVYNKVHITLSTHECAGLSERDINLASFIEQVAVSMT
UniProt Q53EL6: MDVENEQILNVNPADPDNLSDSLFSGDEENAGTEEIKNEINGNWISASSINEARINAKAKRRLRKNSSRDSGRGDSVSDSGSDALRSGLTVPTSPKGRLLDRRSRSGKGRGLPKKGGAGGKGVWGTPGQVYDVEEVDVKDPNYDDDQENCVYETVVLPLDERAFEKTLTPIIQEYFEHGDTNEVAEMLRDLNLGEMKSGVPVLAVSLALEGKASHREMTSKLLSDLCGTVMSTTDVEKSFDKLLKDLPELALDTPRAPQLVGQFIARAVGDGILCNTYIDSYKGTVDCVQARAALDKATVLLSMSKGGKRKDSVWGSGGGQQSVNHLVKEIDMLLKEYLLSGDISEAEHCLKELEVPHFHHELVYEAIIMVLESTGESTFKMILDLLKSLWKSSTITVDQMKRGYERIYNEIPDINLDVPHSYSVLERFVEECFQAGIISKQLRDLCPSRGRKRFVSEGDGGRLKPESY
UniProt Q86SE9: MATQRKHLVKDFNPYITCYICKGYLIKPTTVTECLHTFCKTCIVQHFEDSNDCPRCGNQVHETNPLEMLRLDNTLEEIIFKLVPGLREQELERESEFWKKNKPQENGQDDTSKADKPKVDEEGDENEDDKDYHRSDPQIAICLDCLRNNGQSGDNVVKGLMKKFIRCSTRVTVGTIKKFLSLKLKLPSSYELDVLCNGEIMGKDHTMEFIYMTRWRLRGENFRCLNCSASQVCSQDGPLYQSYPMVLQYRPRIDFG
UniProt Q86TB9: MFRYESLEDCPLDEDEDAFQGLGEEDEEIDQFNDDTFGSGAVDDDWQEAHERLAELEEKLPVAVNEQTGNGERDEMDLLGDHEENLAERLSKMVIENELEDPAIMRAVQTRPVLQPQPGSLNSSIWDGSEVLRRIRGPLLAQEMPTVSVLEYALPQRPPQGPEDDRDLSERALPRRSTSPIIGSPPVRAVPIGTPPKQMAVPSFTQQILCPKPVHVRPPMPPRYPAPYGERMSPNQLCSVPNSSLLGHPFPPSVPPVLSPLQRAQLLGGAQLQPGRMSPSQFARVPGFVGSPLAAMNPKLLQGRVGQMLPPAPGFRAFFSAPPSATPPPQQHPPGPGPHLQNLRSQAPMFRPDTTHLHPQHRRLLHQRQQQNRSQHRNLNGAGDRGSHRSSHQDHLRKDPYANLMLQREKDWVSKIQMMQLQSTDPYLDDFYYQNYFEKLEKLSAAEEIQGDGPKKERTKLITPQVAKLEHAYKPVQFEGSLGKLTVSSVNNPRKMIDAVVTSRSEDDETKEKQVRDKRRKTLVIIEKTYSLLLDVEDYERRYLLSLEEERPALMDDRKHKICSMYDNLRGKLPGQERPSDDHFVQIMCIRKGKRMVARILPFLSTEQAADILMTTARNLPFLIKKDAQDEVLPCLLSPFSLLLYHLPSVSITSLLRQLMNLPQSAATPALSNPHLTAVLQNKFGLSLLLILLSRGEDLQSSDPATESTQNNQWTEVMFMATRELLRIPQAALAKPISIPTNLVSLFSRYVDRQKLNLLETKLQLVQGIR
UniProt Q9BVG4: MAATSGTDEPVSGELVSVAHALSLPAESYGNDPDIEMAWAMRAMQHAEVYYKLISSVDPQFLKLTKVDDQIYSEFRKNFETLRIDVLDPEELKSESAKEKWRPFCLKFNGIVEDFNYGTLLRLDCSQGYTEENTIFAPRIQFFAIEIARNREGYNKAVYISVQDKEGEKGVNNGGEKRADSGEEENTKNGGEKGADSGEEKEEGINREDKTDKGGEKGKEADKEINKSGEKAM
UniProt P0DJ07: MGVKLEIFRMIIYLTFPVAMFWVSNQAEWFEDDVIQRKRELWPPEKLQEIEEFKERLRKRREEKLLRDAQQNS
UniProt H7BZJ3: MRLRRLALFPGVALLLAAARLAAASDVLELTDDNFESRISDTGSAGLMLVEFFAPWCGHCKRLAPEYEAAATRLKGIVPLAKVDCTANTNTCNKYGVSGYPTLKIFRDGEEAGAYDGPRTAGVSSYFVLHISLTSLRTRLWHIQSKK
UniProt Q15118, whole entry, looked up: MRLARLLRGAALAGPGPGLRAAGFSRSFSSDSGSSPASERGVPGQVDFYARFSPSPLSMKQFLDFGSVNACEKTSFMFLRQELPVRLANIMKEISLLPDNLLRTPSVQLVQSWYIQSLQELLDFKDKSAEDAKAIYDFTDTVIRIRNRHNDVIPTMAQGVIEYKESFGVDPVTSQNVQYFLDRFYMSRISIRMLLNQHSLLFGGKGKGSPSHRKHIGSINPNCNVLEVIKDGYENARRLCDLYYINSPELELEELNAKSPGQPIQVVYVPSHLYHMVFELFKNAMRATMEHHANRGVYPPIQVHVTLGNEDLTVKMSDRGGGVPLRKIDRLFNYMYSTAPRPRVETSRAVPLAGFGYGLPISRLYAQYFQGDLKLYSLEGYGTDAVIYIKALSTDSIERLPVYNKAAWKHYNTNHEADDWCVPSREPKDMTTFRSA
UniProt Q01813: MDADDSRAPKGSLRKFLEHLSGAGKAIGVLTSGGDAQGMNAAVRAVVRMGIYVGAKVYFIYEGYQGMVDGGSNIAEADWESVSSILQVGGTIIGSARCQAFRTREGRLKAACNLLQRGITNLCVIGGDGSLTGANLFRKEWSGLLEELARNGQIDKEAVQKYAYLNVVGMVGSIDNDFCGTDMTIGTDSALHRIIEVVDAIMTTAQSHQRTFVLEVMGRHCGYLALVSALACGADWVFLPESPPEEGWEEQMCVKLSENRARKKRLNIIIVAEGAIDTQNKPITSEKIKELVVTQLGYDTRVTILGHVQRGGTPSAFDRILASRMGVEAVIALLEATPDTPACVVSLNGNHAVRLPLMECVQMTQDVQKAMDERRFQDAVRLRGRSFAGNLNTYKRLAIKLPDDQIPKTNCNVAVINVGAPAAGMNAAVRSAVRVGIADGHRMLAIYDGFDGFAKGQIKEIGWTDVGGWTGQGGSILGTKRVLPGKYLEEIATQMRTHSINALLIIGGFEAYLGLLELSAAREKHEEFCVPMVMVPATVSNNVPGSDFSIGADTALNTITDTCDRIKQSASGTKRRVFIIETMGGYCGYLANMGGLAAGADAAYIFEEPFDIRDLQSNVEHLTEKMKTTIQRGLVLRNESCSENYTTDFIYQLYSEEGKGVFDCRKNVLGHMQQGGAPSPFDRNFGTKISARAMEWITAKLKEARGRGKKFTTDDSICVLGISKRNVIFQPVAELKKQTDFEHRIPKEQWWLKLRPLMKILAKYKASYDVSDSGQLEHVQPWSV
UniProt P12004, whole entry, looked up: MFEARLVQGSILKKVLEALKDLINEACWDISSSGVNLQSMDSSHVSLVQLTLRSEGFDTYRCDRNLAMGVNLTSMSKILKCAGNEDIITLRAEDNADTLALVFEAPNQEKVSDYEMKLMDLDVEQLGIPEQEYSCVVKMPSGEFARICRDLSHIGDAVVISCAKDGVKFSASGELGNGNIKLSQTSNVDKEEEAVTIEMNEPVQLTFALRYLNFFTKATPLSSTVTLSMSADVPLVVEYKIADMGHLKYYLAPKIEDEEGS
UniProt P50479: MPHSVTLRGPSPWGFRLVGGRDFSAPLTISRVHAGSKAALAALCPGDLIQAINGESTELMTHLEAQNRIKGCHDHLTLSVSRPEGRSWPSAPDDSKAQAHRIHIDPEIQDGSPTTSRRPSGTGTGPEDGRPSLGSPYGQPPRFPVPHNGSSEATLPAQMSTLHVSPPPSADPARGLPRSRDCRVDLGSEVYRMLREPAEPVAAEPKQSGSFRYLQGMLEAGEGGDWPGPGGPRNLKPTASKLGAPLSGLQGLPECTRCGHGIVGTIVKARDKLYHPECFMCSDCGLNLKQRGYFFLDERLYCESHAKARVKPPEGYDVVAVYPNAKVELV

compound: C1COCCN1CCN2C3=CC=CC=C3N=C2NC(=O)C4=CC(=CC=C4)[N+](=O)[O-] [IRAK-1-4 Inhibitor I]; experiment: log2 fold change, soluble protein after heating vs DMSO (PISA); higher = thermal stabilisation; K562 lysate, 10 uM; active = over 0.2 and 3.5 SD of the protein, either way, in both replicates (recomputed)
How it was run: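 A 30 min treatment with 10 μM compound was applied to crude K562 extract at 1 mg/mL protein in PBS pH 7.4 with 1 mM MgCl2. Heating for 3 min spanned 48°C-58°C, after which aliquots were pooled, adjusted to 0.5% NP-40 at 4°C and spun at 21,000xg for 90 min. TMTpro 16plex LC-MS/MS of the supernatant, with channel sums equalised, gave values recorded as log-two fold change in thermal stability against solvent controls, from duplicates.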

log2 fold change, inactive:
PFKL isoform 2 (UniProt P17858) 0.033, PFN1 (UniProt P07737) -0.007, PCK2 (UniProt Q16822) 0.013, PFKFB2 (UniProt O60825) -0.001, PCBP2 isoform 3 (UniProt Q15366) -0.026, PDXP (UniProt Q96GD0) 0.037, PCBD1 (UniProt P61457) -0.005, PDCD4 (UniProt Q53EL6) 0.015, PARP2 (UniProt Q9UGN5) -0.114, PCGF5 (UniProt Q86SE9) -0.064, PATL1 (UniProt Q86TB9) 0.035, PBDC1 (UniProt Q9BVG4) -0.012, PET100 (UniProt P0DJ07) -0.093, PDIA3 (UniProt H7BZJ3) 0.211, PDK1 (UniProt Q15118) 0.008, PECAM1 (UniProt P16284) 0.045, PCBP2 (UniProt H3BRU6) 0.009, PFKP (UniProt Q01813) -0.003, PCNA (UniProt P12004) -0.026, PARP9 (UniProt Q8IXQ6) 0.073, PDIA4 (UniProt P13667) -0.001, PFKFB4 (UniProt Q16877) -0.023, PDLIM4 (UniProt P50479) 0.002
